Values quoted from earlier work in patent US20150182479A1, “Method of delivering agmatine for medical treatment” (TOPAZ VENTURES, INC., priority 2013, published 2015).

System: mouse
Settings: for effect on the SSRI-induced rise of brain agmatine levels: mice exposed to FST

SMILES | concentration of agmatine in brain compared to saline control (mice pretreated and exposed to FST) | effect on the SSRI-induced rise of brain agmatine levels
CN(C)CCCN1c2ccccc2CCc2ccccc21 [imipramine] | but not | 
CCC1(C2=NCCN2)Cc2ccccc2O1 (stereo not shown) [efaroxan] |  | but not
c1ccc2c(c1)OCC(C1=NCCN1)O2 (stereo not shown) [idazoxan] |  | but not
N=C(N)NCCC[C@@H](N)C(=O)O [D-arginine] |  | completely blocked
